Data on one substance can be found in US20080306008 (published 2008).

The nature of series [1]: general procedure: Fmoc solid-phase peptide synthesis; Fmoc-Rink resin (4-(2',4'-dimethoxyphenyl-Fmoc-aminomethyl)-phenoxypolystyrene resin, Bachem D-2080; 0.47 mmol/g); HOBt ester; HOAt with DIPEA for Fmoc-Glu(2-phenylisopropyloxy)-OH. The following applies: whole synthesis, scale of the general procedure 0.10 mmol, hydrochloride.
Series [2] in a line: general procedure: Fmoc solid-phase peptide synthesis; Rink linker-polystyrene; HOBt ester; HOAt with DIPEA for Fmoc-Glu(2-phenylisopropyloxy)-OH. The following applies: whole synthesis, scale 0.10 mmol, hydrochloride.

As for “2-[2-(hexadecanoylamino)ethoxy]ethoxyacetyl-His-Ser-Nle-c[Glu-Asn-D-Phe-Arg-Trp-Lys]-NH2”, the “final HPLC purity” value is on record as 99% purity in series [1] (UV 214 nm) and 94% purity in series [1] (UV 254 nm). The isolated mass in series [2] worked out at 21.6 mg. Moreover, the isolated yield in series [2] turned out to be 13% yield.
